Laboratory results reported in paper PMC8876561.
Results are given in words; binding and its absence hold for the method and conditions named. Some binding calls cover weakened binding; strength is not graded here.

Target: Wild-type Spa47 (Shigella T3SS ATPase) (Shigella flexneri) (UniProt Q6XVW8)
Assay: SEC; Superdex 10/300 size exclusion column in 20 mM Tris, 100 mM NaCl, 5 mM DTT, pH 7.9, 4 °C; monomeric and oligomeric fractions isolated; size of the oligomer not stated; both purified

With “Wild-type Spa47 (Shigella T3SS ATPase) (from UniProt Q6XVW8 1-430) (enzyme)” as the substance, how does the binding read?
Its binding is “binds”.
